The target in one assay is T1, Lti6b-ALFA (UniProt Q9ZNS6).
T1 sequence: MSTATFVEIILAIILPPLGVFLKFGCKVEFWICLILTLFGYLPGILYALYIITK
Nature of the assay: split reporter.

The target of assay [1] is T2, IRT1-ALFA fusion 3 (ALFA tag inserted in the large cytosolic loop of IRT1) (Arabidopsis thaliana) (UniProt Q38856).
T2 sequence: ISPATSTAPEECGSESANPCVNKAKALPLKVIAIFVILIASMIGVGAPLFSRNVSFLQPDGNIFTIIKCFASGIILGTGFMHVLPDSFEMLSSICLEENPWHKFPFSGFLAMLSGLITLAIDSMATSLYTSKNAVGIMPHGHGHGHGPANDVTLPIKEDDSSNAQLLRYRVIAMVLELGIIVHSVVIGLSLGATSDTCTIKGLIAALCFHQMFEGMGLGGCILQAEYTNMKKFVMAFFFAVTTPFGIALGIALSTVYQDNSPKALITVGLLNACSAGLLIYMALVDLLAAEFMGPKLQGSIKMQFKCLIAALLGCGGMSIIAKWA
Put plainly: split reporter.

These are yes or no findings as the source states them, for the method shown. In cells and extracts the contact can be indirect. Some entries that bind do so weakly or less than the wild type. For some assays here: Where a sequence is shown, tags or fusion partners need not be part of it.

B1: FRO2-mCitC (protein, UniProt P92949 1-725)
chain: MEIEKSNNGGSNPSAGEEFKDMIKGVTKFLMMVIFLGTIMLWIMMPTLTYRTKWLPHLRIKFGTSTYFGATGTTLFMYMFPMMVVACLGCVYLHFKNRKSPHHIDRETKGGVWSKLRKPMLVKGPLGIVSVTEITFLAMFVALLLWCFITYLRNSFATITPKSAAAHDESLWQAKLESAALRLGLIGNICLAFLFLPVARGSSLLPAMGLTSESSIKYHIWLGHMVMALFTVHGLCYIIYWASMHEISQMIMWDTKGVSNLAGEIALAAGLVMWATTYPKIRRRFFEVFFYTHYLYIVFMLFFVLHVGISFSFIALPGFYIFLVDRFLRFLQSRENVRLLAARILPSDTMELTFSKNSKLVYSPTSIMFVNIPSISKLQWHPFTITSSSKLEPEKLSIVIKKEGKWSTKLHQRLSSSDQIDRLAVSVEGPYGPASADFLRHEALVMVCGGSGITPFISVIRDLIATSQKETCKIPKITLICAFKKSSEISMLDLVLPLSGLETELSSDINIKIEAFITRDNDAGDEAKAGKIKTLWFKPSLSDQSISSILGPNSWLWLGAILASSFLIFMIIIGIITRYYIYPIDHNTNKIYSLTSKTIIYILVISVSIMATCSAAMLWNKKKYGKVESKQVQNVDRPSPTSSPTSSWGYNSLREIESTPQESLVQRTNLHFGERPNLKKLLLDVEGSSVGVLVCGPKKMRQKVAEICSSGLAENLHFESISFSW
Take B1: the figures for the binding result (with Lti6b-ALFA; in assay [1]) were “no binding” and “binds”, respectively.

(Values after publication doi:10.1101/2025.03.19.644120.)
